{"source": "patent US20210113640A1", "about": "“COMPOSITION FOR PROMOTING HAIR GROWTH OR PREVENTING HAIR LOSS CONTAINING EXTRACT OF ASTER AGERATOIDES” (KOREA INSTITUTE OF SCIENCE AND TECHNOLOGY, priority 2019, published 2021)", "system": "Human dermal papilla cells (hDPCs)", "test": "Human dermal papilla cell proliferation experiment (MTT)", "format": "cell-based", "details": "72 hours", "note": "At least one structure is not confirmed: it was looked up by name or label, or the drawing left a doubt.", "data": [{"molecule": "Nc1cc(N2CCCCC2)nc(N)[n+]1[O-]", "note": "[Minoxidil, minoxidil]", "values": [{"measurement": "cell proliferation effect compared to the negative control group", "setting": "10 μM", "result": "no significant effects"}, {"measurement": "cell proliferation effect compared to the negative control group", "setting": "100 μM", "result": "no significant effects"}]}]}
